PubChem BioAssay AID720505 | Drosophila RNAi Screening Center, 2013
Aim: 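Knock-downs that reduce calcium influx once internal stores are emptied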 (primary screen). Cell system: Drosophila S2R+ cells. Knock-down reagent: long dsRNA against Drosophila genes. Treatment: thapsigargin (2 µM) in calcium-free buffer to empty internal stores, then 2 mM calcium added back. Measurement: 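Fluo-4 signal in 384-well plates read on a FLIPR after thapsigargin (2 µM, calcium-free) store depletion and 2 mM calcium add-back; unnormalised mean endpoint per well; screen run twice, selected wells retested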. Reading the numbers: calcium signal: higher = more calcium entry after store depletion. Active means: 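Knock-downs counted as hits when calcium entry dropped relative to STIM1 positive and Rho1 negative controls present on each plate; roughly 1500 genes called, with reductions of differing size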. Calls: active = called as lowering calcium entry; inactive = not called.
In all, the deposit lists about 20,000 reagents; this is a random part of those that have a named target and a result. Over the whole deposit, about 2,100 (10%) got an active call. 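Raw plate signals without normalisation; calls rest on control-based scores that were not deposited; replicate 2 separates called from uncalled poorly.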 A number with no mark means an inactive call. The numbers tell different reagents against one gene apart. A plus sign joins genes that one reagent is predicted to hit. The record does not give: the amount of reagent, the time to read-out.

{"gene": "dnd (dead end)", "reagent": 1, "calcium signal, replicate 1": 140, "calcium signal, replicate 2": 191}
{"gene": "CG8008", "reagent": 1, "calcium signal, replicate 1": 130, "calcium signal, replicate 2": 89.2}
{"gene": "CG10510", "reagent": 1, "calcium signal, replicate 1": "72.6 (active)", "calcium signal, replicate 2": 46.2}
{"gene": "sut3 (sugar transporter 3)", "reagent": 1, "calcium signal, replicate 1": 119, "calcium signal, replicate 2": 143}
{"gene": "ND-PDSW (NADH dehydrogenase (ubiquinone) PDSW subunit)", "reagent": 1, "calcium signal, replicate 1": 127, "calcium signal, replicate 2": 251}
{"gene": "Col4a1 (Collagen type IV alpha 1)", "reagent": 1, "calcium signal, replicate 1": 121, "calcium signal, replicate 2": 137}
{"gene": "lbl (ladybird late)", "reagent": 1, "calcium signal, replicate 1": 155, "calcium signal, replicate 2": 90}
{"gene": "Tsp3A (Tetraspanin 3A)", "reagent": 1, "calcium signal, replicate 1": 96.9, "calcium signal, replicate 2": 130}
{"gene": "CG33060", "reagent": 1, "calcium signal, replicate 1": 88.7, "calcium signal, replicate 2": 100}
{"gene": "CG8929", "reagent": 1, "calcium signal, replicate 1": 193, "calcium signal, replicate 2": 112}
{"gene": "CG8929", "reagent": 2, "calcium signal, replicate 1": 83.2, "calcium signal, replicate 2": 111}
{"gene": "TTLL6A (Tubulin tyrosine ligase-like 6A)", "reagent": 1, "calcium signal, replicate 1": 179, "calcium signal, replicate 2": 186}
{"gene": "CG8176", "reagent": 1, "calcium signal, replicate 1": 101, "calcium signal, replicate 2": 109}
{"gene": "CG17600", "reagent": 1, "calcium signal, replicate 1": 137, "calcium signal, replicate 2": 80.7}
{"gene": "CG17600", "reagent": 2, "calcium signal, replicate 1": 139, "calcium signal, replicate 2": 94}
{"gene": "CG17600", "reagent": 3, "calcium signal, replicate 1": 121, "calcium signal, replicate 2": 153}
{"gene": "bcd + CR14578", "reagent": 1, "calcium signal, replicate 1": 116, "calcium signal, replicate 2": 119}
{"gene": "CG13319", "reagent": 1, "calcium signal, replicate 1": 136, "calcium signal, replicate 2": 123}
{"gene": "Trissin", "reagent": 1, "calcium signal, replicate 1": 113, "calcium signal, replicate 2": 93.5}
{"gene": "Sidpn (similar to Deadpan)", "reagent": 1, "calcium signal, replicate 1": 83.6, "calcium signal, replicate 2": 148}
{"gene": "CG9406", "reagent": 1, "calcium signal, replicate 1": 183, "calcium signal, replicate 2": 84.9}
{"gene": "CG4730", "reagent": 1, "calcium signal, replicate 1": 220, "calcium signal, replicate 2": 115}
{"gene": "Pcyt2 (Phosphocholine cytidylyltransferase 2)", "reagent": 1, "calcium signal, replicate 1": 133, "calcium signal, replicate 2": 122}
{"gene": "CG42365", "reagent": 1, "calcium signal, replicate 1": 233, "calcium signal, replicate 2": 123}
{"gene": "CG9588", "reagent": 1, "calcium signal, replicate 1": 127, "calcium signal, replicate 2": 210}
{"gene": "apn (apnoia)", "reagent": 1, "calcium signal, replicate 1": 133, "calcium signal, replicate 2": 83}
{"gene": "Ubc2 (Ubiquitin conjugating enzyme 2)", "reagent": 1, "calcium signal, replicate 1": 216, "calcium signal, replicate 2": 122}
{"gene": "Ubc2 (Ubiquitin conjugating enzyme 2)", "reagent": 2, "calcium signal, replicate 1": 157, "calcium signal, replicate 2": 148}

Sorted by “calcium signal, replicate 1” (highest first): some entries from above.
{"gene": "lbl (ladybird late)", "reagent": 1, "calcium signal, replicate 1": 155, "calcium signal, replicate 2": 90}
{"gene": "ND-PDSW (NADH dehydrogenase (ubiquinone) PDSW subunit)", "reagent": 1, "calcium signal, replicate 1": 127, "calcium signal, replicate 2": 251}
{"gene": "Col4a1 (Collagen type IV alpha 1)", "reagent": 1, "calcium signal, replicate 1": 121, "calcium signal, replicate 2": 137}
